From paper PMC8002179 come the findings set out here.

Chains of the proteins cited; added tags and fusions are not shown.
UniProt P25106: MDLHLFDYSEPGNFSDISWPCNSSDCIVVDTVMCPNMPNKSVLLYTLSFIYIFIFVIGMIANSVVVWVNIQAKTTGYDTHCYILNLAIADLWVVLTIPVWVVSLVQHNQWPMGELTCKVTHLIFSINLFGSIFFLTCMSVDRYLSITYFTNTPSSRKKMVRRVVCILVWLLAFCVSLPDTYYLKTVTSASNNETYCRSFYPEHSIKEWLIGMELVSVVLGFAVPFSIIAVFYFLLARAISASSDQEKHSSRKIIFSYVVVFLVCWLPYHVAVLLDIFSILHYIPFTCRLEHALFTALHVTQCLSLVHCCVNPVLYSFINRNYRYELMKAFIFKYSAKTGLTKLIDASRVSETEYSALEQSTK
UniProt P25098: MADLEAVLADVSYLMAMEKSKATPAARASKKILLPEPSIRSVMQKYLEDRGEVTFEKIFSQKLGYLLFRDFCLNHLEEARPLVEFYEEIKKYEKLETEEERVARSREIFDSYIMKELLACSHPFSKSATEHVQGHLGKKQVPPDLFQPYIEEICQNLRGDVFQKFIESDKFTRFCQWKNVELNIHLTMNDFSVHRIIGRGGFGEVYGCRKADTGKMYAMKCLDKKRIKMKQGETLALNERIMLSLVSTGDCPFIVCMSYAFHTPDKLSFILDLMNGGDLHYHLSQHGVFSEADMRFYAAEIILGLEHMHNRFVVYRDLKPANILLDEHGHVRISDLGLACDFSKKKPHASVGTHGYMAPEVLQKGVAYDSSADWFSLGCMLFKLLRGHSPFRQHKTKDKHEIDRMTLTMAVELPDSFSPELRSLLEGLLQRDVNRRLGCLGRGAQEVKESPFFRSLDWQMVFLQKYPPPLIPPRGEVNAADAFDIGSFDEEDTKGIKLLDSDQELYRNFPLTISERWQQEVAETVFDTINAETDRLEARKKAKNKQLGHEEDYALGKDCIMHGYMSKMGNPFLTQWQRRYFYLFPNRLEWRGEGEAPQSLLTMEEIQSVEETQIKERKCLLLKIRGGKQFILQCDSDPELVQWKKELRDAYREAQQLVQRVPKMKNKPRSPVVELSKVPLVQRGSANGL
UniProt P35626: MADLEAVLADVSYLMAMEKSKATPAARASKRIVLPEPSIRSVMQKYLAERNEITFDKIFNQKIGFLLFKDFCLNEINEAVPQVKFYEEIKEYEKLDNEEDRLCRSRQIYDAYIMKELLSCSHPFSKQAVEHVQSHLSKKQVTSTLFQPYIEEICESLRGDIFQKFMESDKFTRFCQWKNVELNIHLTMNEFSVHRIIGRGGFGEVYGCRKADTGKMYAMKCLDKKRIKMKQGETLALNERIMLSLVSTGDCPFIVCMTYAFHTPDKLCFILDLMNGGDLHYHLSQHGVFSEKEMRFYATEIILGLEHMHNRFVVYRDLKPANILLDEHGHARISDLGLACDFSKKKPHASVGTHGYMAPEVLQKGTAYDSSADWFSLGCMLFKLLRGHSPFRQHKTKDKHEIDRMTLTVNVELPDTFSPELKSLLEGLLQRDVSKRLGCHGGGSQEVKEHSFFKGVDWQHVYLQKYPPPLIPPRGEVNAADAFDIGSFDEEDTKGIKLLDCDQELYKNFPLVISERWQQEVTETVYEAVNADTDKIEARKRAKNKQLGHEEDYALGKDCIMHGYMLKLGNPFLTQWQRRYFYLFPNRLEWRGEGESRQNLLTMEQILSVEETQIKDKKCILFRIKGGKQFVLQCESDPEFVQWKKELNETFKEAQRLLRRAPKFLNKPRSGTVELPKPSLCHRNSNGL
UniProt P34947: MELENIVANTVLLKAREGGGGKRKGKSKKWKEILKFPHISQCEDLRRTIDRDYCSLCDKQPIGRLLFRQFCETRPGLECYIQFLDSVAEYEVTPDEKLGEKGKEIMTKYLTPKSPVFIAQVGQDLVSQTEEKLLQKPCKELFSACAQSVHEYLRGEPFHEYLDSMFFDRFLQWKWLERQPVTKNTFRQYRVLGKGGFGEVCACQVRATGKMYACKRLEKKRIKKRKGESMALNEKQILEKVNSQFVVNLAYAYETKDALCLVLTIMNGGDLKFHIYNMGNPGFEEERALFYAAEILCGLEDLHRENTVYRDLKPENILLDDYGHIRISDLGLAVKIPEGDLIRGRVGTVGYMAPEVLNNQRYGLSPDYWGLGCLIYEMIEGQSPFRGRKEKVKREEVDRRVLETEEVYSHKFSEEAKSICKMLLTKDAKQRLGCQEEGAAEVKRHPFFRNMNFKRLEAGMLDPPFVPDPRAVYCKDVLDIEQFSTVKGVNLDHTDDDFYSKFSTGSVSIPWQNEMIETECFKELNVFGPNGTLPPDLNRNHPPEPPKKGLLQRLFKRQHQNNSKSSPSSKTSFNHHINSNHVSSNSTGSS
UniProt P43250: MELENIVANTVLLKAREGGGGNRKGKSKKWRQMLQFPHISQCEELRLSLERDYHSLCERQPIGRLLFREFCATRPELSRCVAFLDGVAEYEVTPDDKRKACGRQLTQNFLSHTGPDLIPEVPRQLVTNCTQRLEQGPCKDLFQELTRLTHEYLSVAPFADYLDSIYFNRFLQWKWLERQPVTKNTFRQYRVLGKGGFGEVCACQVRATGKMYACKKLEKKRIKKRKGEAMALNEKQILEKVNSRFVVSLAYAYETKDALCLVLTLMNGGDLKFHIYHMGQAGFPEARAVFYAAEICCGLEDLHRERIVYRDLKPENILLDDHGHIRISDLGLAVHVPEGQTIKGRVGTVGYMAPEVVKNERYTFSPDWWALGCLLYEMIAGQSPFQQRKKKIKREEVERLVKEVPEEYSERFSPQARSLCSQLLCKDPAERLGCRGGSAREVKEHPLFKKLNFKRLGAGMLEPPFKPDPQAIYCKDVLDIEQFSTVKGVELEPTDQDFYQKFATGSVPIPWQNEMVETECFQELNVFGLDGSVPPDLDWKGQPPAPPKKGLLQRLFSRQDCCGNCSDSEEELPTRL

These are yes or no findings as the source states them, for the method shown. Binding seen in cells or lysates may run through a third protein. Some entries that bind do so weakly or less than the wild type.

The target of the experiment is wild type ACKR3 fused with Renilla luciferase (RLuc) on the C-terminal tail (human) (UniProt P25106). In words: FRET or BRET; BRET in living HEK293T cells co-transfected with ACKR3-RLuc (WT or mutant, donor) and an eYFP- or mVenus-tagged partner (acceptor); Hanks' balanced salt solution, coelenterazine-h; stimulated with 100 nM CXCL12 and read in real time; some panels with 10 µM CMPD101 pre-incubation for 30 min.
In the case of “G-protein-coupled receptor kinase 2 fused to the mVenus fluorescent protein (from UniProt P25098 1-689) (enzyme)”, the binding entry was “binds”.

Take “G-protein-coupled receptor kinase 3 fused to the mVenus fluorescent protein (from UniProt P35626 1-688) (enzyme)”: the binding result is recorded as “binds”.

Regarding “G-protein-coupled receptor kinase 5 fused to the mVenus fluorescent protein (from UniProt P34947 1-590) (enzyme)”, the binding result is listed as “binds”. On to “G-protein-coupled receptor kinase 6 fused to the mVenus fluorescent protein (from UniProt P43250 1-576) (enzyme)”, for which the binding entry was “no binding”.
